In all, about 140,000 compounds went through this assay and about 4,300 (3.1%) were called active. Inconclusive means that the source gave no clear call. Such entries were picked first, then a sample of the others.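 How the source made its calls: active means readout at or below -70, meaning at least 70% loss of cells showing the perinucleolar compartment, a nuclear body marking cancer cells; inconclusive means readout between -30 and a set limit; inactive means the rest.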
Assay: High Content Assay for Compounds that inhibit the Assembly of the Perinucleolar Compartment;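 further: plate controls were DMSO wells for no effect and camptothecin positive control wells for full effect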
Conditions: PC3M PTB-GFP, PNC prevalence imaging, 16 h; at 10 µM; hits give low values
Method in brief: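 Read-out is percentage of cells bearing a perinucleolar compartment, from automated 20x imaging of fixed, Hoechst-stained PC3M PTB-GFP cells. Cells were seeded 4 h, then exposed 16 h to compound (23 nl of library stock) in duplicate plates.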
With `CCCOc1ccc(C(=O)NCc2cccnc2)cc1` the activity change (PNC), negative = inhibition was inconclusive: -55.1%.
For `C=CCn1c(SCCOc2ccc(OC)cc2)nnc1C(C)NC(=O)c1ccc(OC)cc1` (stereo not given), the activity change (PNC), negative = inhibition was inconclusive: -46.2%.
In the case of `COc1ccc(NC(=O)c2ccc3ccccc3n2)cc1S(=O)(=O)Nc1ccccc1Cl`, the activity change (PNC), negative = inhibition is reported as inconclusive: -31.5%.
With `Cc1nn2cc(-c3ccc(-c4ccccc4)cc3)nc2s1` the activity change (PNC), negative = inhibition was inconclusive: -32.7%.
In the case of `O=S1(=O)N=C2CCCCCN2C(c2ccncc2)N1` (stereo not given), the activity change (PNC), negative = inhibition is reported as inconclusive: -32.3%.
For `Cc1ccc(C2=NNC(c3ccc(Cl)cc3)=Nc3ccccc32)o1`, the activity change (PNC), negative = inhibition was inconclusive: -49.2%.
For `COc1ccc(CN2CCN(c3ccccn3)CC2)c(OC)c1`, the activity change (PNC), negative = inhibition was inconclusive: -78.1%.
With `O=C(Cn1c(C(F)(F)F)nc2ccccc21)NCCN1CCCC1` the activity change (PNC), negative = inhibition was inconclusive: -39.1%.
For `c1ccc2c3c(cc(N4CCOCC4)c2c1)OC1(N2CCOCC2)CCCCC1O3` (stereo not given), the activity change (PNC), negative = inhibition was inconclusive: -44.7%.
In the case of `Cc1cccc(-n2c(O)c(C=NCCCN3CCOCC3)c3ccccc3c2=O)c1`, the activity change (PNC), negative = inhibition is reported as inconclusive: -50.1%.
With `Cc1nc(Nc2ccc(S(=O)(=O)N3CCCC3)cc2)c2nnn(Cc3ccccc3)c2n1` the activity change (PNC), negative = inhibition was inconclusive: -31.8%.
In the case of `COc1ccccc1NC(=O)c1sc2ncn(Cc3ccc(C)cc3)c(=O)c2c1C`, the activity change (PNC), negative = inhibition is reported as inactive: 17.3%.
With `N#CC1=C2Sc3ccccc3N2CCCC1=O` the activity change (PNC), negative = inhibition was inconclusive: -58%.
In the case of `Cc1cc2c(cc(C(=O)OCC(=O)NCc3ccco3)n2C)s1`, the activity change (PNC), negative = inhibition is reported as inactive: 22.9%.
In the case of `O=C(COc1ccccc1)NNC(=O)c1cc2ccccc2o1`, the activity change (PNC), negative = inhibition is reported as inconclusive: -71.6%.
In the case of `Cc1cc2c(ncn2Cc2ccccc2)c(NS(C)(=O)=O)c1C`, the activity change (PNC), negative = inhibition is reported as inconclusive: -36.1%.
In the case of `O=C(Cn1cnc([N+](=O)[O-])n1)N/N=C/c1ccccc1O`, the activity change (PNC), negative = inhibition is reported as inconclusive: -41%.
With `CCCCn1c(SCC(=O)Nc2ccc(OC)cc2)nc2ccc(N3CCOCC3)cc2c1=O` the activity change (PNC), negative = inhibition was inconclusive: -44.8%.
In the case of `COc1ccc2[nH]cc(C(O)CN3CCN(c4ccccc4)CC3)c2c1` (stereo not given), the activity change (PNC), negative = inhibition is reported as inactive: 3.89%.
With `CCN(CCO)Cc1cn[nH]c1-c1ccc(C)c(C)c1` the activity change (PNC), negative = inhibition was inactive: -19.8%.
With `Cn1c(NC(=O)c2ccccc2NC(=O)C(C)(C)C)nc2ccccc21` the activity change (PNC), negative = inhibition was inconclusive: -35.6%.
With `COc1ccc(NC(=O)c2ccc(Cl)c(S(=O)(=O)N3CCc4ccccc4C3)c2)cn1` the activity change (PNC), negative = inhibition was inconclusive: -70.8%.
With `CC(NC(=O)Cn1cc(C(=O)C2CC2)c2ccccc21)c1ccccc1` (stereo not given) the activity change (PNC), negative = inhibition was inconclusive: -30.7%.
In the case of `O=S(=O)(c1ccc2c(c1)oc1ccccc12)N1CCOCC1`, the activity change (PNC), negative = inhibition is reported as active: -80.6%.
In the case of `CCOC(=O)c1nc(N)c(C(=O)OCC)[nH]1`, the activity change (PNC), negative = inhibition is reported as inconclusive: -47%.
With `N#C/C(=C/c1ccc(N2CCOCC2)o1)c1ccc(Cl)cc1` the activity change (PNC), negative = inhibition was inconclusive: -72.9%.
With `Cc1ccc(Cn2c(SCC(N)=O)nc3c2c(=O)n(C)c(=O)n3C)cc1` the activity change (PNC), negative = inhibition was inconclusive: -32.3%.
In the case of `COc1ccc(COc2cc(-c3cccc(OC)c3)nc3ccc(NC(=O)C(C)C)cc23)cc1`, the activity change (PNC), negative = inhibition is reported as inactive: 18.6%.
For `Clc1cccc(-c2nn3c(Cn4cnc5ccccc54)nnc3s2)c1`, the activity change (PNC), negative = inhibition was inconclusive: -42.9%.
In the case of `Cc1csc(NC(=O)C2CCCN2C(=O)Oc2ccccc2)n1` (stereo not given), the activity change (PNC), negative = inhibition is reported as inconclusive: -72.4%.
For `CCOC(=O)c1c(NC(=O)CNCCO)sc(C)c1C`, the activity change (PNC), negative = inhibition was inconclusive: -47%.
In the case of `O=Cc1cn(CCC(=O)O)nc1-c1cc2ccccc2o1`, the activity change (PNC), negative = inhibition is reported as inconclusive: -38.3%.
With `Cc1sc2ncnc(NCc3ccco3)c2c1C` the activity change (PNC), negative = inhibition was inconclusive: -36.1%.
With `C/C(=N/NS(=O)(=O)c1ccc(Br)cc1)c1ccc(C)o1` the activity change (PNC), negative = inhibition was inconclusive: -35.9%.
For `Cc1ccc(Oc2ccc(-c3nnc(-c4ccccc4)o3)cc2[N+](=O)[O-])cc1C`, the activity change (PNC), negative = inhibition was inconclusive: -32.9%.
In the case of `Fc1c(F)c(F)c(N=Cc2ccc3ncccc3c2)c(F)c1F`, the activity change (PNC), negative = inhibition is reported as inactive: -29.9%.
For `CCCCCC1CC(CC(=O)NC(=S)Nc2ccc([N+](=O)[O-])cc2)C(=O)O1` (stereo not given), the activity change (PNC), negative = inhibition was inconclusive: -71.6%.
For `CCCCNC(=O)Nc1nnc(-c2ccc(OCC)cc2)o1`, the activity change (PNC), negative = inhibition was inconclusive: -32.2%.
For `O=C(O)c1ccc(-n2nnnc2SCc2ccccc2)cc1`, the activity change (PNC), negative = inhibition was inconclusive: -40%.
With `COCCn1c(-c2ccccc2)cnc1SCC(=O)Nc1cccc2ccccc12` the activity change (PNC), negative = inhibition was inactive: 11%.
With `O=C(O)Cc1csc(Nc2cccc(Cl)c2)n1` the activity change (PNC), negative = inhibition was inconclusive: -34.1%.
With `COc1cc2c(cc1OC)C1=C(C#N)CCC(=NC(=O)c3ccc(Cl)cc3)N1CC2` the activity change (PNC), negative = inhibition was inactive: 57.7%.
For `CCCCOc1cccc(NC(=O)CSc2nccn2C)c1`, the activity change (PNC), negative = inhibition was inactive: 8.78%.
For `COc1cc(C2NC(=S)NC3=C2CCc2ccccc23)cc(OC)c1OC` (stereo not given), the activity change (PNC), negative = inhibition was inconclusive: -40.7%.
In the case of `COc1ccccc1NC(=O)CC(NC1CCCCC1)C(=O)O` (stereo not given), the activity change (PNC), negative = inhibition is reported as inconclusive: -40.9%.

Reference: PubChem BioAssay AID2417 (National Center for Advancing Translational Sciences (NCATS), 2010)
